Taken from: PubChem BioAssay AID1259254 (NCATS, 2017)

Test: 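Finding genes that stop cells copying their DNA twice in one cycle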 (primary screen)
Cell system: human HCT116 colorectal cancer cells
Reagents: single siRNA against human genes
Time to read-out: 3 days
Measurement: 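Imaged Hoechst DNA stain sorts each cell into a cycle phase by DNA amount; per plate, G2 fraction set to 0% for non-targeting and 100% for GMNN siRNA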
Scale: G2 robust z-score and G2 cells, % of GMNN control: higher = more G2 cells, more excess DNA replication
Hit rule: 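An siRNA counts as active if its G2 robust z-score lies at least 5 MADs above the screen median; here such calls match roughly 38% of GMNN control or more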
Shown is a random part of about 59,000 deposited reagents. About 1,550 of them (2.6%) count as active. 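G2 share is only a proxy for re-replication; each gene was hit by three separate siRNAs, and active genes were retested.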 A number with no mark means an inactive call. The numbers tell different reagents against one gene apart. Further read-outs or replicates are left out here. Reagent sequences are not shown. Not given: the amount of reagent.

FANCE #1 — G2 robust z-score: -0.143; G2 cells, % of GMNN control: 1.96
FANCE #2 — G2 robust z-score: -0.706; G2 cells, % of GMNN control: -2
FANCE #3 — G2 robust z-score: 2.21; G2 cells, % of GMNN control: 18.5
CHSY1 #1 — G2 robust z-score: -1.71; G2 cells, % of GMNN control: -9.08
CHSY1 #2 — G2 robust z-score: 1.82; G2 cells, % of GMNN control: 15.8
CHSY1 #3 — G2 robust z-score: 0.333; G2 cells, % of GMNN control: 5.31
PPBPP1 #1 — G2 robust z-score: 0.837; G2 cells, % of GMNN control: 8.86
PPBPP1 #2 — G2 robust z-score: -0.894; G2 cells, % of GMNN control: -3.33
PPBPP1 #3 — G2 robust z-score: -0.625; G2 cells, % of GMNN control: -1.43
CISH #1 — G2 robust z-score: 0.001; G2 cells, % of GMNN control: 2.97
CISH #2 — G2 robust z-score: 0.794; G2 cells, % of GMNN control: 8.55
CISH #3 — G2 robust z-score: -0.193; G2 cells, % of GMNN control: 1.61
ESCO1 #1 — G2 robust z-score: 2.06; G2 cells, % of GMNN control: 17.4
ESCO1 #2 — G2 robust z-score: 2.88; G2 cells, % of GMNN control: 23.2
ESCO1 #3 — G2 robust z-score: -0.494; G2 cells, % of GMNN control: -0.508
ELOA3P #1 — G2 robust z-score: -0.204; G2 cells, % of GMNN control: 1.53
ELOA3P #2 — G2 robust z-score: 1.11; G2 cells, % of GMNN control: 10.7
ELOA3P #3 — G2 robust z-score: 2.75; G2 cells, % of GMNN control: 22.3
ZYX #1 — G2 robust z-score: 4.68; G2 cells, % of GMNN control: 35.9
ZYX #2 — G2 robust z-score: 0.987; G2 cells, % of GMNN control: 9.91
ZYX #3 — G2 robust z-score: 1.26; G2 cells, % of GMNN control: 11.8
KRT32 #1 — G2 robust z-score: 0.409; G2 cells, % of GMNN control: 5.85
KRT32 #2 — G2 robust z-score: 0.0691; G2 cells, % of GMNN control: 3.45
KRT32 #3 — G2 robust z-score: -0.145; G2 cells, % of GMNN control: 1.95
